No constants are given. Whether binding was seen depends on the method and setting. Binding calls can cover weak binding; strength is not graded here. Sequences can lack the tags named with a protein.
Target: Multidrug resistance protein (AT1G67700) (Arabidopsis thaliana)
Test: anti-FLAG IP-MS of FLAG-BD plants

binding: binds
B1: FLAG-BD (FLAG-tagged minimal Arabidopsis BRN1 protein that contains only the first two RRM domains) (protein)
chain: MDYKDDDDKGIHGVPAAAEAKEENREKNEEEESVKLFVGQIPKHMSESQLLTLFQEFAVVDEVNIIKDKITRASRGCCFLLCPSREEADKLVNACHNKKTLPGANSLLQVKYADGELERLEHKLFVGMLPKNVSEAEVQSLFSKYGTIKDLQILRGAQQTSKGCAFLKYETKEQAVSAMESINGKHKMEGSTVPLVVKWADTERERHTRRLQKAQ

From patent publication US20250051788A1
